Results on four molecules are retold here after article PMC10683276.

Amino acid sequences for entries named in this document (tags omitted). Residues count along the entry.
UniProt Q01097, residues 27-1482: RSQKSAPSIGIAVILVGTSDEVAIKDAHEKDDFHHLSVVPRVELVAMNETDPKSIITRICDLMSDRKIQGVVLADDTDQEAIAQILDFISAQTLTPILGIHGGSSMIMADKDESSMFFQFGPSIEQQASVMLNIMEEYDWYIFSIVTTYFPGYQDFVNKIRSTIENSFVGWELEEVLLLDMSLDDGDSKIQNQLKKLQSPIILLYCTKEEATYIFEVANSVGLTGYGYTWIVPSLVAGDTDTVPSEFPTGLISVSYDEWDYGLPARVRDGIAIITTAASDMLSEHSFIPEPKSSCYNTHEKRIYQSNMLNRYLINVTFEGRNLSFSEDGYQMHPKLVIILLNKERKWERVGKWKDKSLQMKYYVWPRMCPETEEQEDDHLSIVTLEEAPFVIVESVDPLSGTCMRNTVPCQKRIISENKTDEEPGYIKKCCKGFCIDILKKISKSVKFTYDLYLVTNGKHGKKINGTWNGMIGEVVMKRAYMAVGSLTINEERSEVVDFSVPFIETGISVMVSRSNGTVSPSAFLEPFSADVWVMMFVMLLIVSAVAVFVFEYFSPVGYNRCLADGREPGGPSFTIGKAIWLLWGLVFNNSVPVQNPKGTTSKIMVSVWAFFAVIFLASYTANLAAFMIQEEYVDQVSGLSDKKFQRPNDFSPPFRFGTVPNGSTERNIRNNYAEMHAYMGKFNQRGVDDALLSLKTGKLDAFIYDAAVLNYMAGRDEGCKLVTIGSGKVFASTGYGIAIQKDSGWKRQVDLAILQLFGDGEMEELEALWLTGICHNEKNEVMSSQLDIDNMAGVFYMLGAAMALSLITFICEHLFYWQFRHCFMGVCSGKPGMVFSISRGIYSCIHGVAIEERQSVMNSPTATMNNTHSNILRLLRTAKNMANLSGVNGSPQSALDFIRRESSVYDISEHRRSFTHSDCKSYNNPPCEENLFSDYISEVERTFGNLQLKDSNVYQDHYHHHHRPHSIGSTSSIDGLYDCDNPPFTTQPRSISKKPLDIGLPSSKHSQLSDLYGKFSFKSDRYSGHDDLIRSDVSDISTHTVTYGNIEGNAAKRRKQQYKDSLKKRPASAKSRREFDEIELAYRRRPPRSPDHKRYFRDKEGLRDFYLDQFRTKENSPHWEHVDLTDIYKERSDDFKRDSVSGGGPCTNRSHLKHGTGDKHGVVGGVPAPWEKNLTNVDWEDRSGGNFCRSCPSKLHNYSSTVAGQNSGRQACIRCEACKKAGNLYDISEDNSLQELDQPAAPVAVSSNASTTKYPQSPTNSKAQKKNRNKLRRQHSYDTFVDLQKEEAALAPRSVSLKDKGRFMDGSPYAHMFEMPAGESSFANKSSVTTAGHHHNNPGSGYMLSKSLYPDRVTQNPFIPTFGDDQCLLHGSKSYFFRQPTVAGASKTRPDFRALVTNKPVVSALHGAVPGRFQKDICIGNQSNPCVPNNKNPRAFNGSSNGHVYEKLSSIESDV
UniProt Q9CQJ4: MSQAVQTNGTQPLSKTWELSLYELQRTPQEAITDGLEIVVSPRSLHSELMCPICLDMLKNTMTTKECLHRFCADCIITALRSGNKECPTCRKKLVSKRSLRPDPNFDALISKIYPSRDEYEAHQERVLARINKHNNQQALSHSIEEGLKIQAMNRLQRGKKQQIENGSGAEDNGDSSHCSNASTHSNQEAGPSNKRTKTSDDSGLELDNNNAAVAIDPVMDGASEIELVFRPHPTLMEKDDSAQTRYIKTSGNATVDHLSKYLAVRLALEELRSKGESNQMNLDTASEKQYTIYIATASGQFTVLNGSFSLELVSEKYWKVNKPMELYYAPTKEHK
UniProt Q80XJ2: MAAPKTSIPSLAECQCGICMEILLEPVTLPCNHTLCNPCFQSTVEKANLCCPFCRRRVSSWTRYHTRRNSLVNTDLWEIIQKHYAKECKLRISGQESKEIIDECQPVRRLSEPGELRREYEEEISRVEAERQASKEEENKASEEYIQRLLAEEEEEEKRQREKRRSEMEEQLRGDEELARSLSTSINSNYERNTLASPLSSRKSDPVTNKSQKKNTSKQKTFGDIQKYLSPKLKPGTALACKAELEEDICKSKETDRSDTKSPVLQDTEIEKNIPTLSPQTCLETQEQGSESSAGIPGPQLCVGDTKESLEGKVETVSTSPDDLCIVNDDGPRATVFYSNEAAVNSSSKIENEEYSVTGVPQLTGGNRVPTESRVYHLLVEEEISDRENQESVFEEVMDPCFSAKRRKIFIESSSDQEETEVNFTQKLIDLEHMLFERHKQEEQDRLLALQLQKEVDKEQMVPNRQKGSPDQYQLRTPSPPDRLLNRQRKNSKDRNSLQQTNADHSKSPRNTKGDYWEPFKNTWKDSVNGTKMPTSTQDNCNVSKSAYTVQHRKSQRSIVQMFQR

To fix the notation:
B1: RNF138, endogenous in N2a cells (enzyme, UniProt Q9CQE0 1-245)
chain: MSEELSAATSYTEDDFYCPVCQEVLKTPVRTAACQHVFCRKCFLTAMRESGIHCPLCRGSVTRRERACPERALDLENIMRRFSGSCRCCSKKIKFYRMRHHYKSCKKYQDEYGVSSVIPNFKISQDSVRSSNRSETSASDNTETYQEDTSSSGHPTFKCPLCQESNFTRQRLLDHCNSNHLFQIVPVTCPICVSLPWGDPSQITRNFVSHLNQRHQFDYGEFVNLQLDEETQYQTAVEESFQVNM

These are yes or no findings as the source states them, for the method shown. Binding seen in cells or lysates may run through a third protein. Some results given as binding are weak or reduced against the parent protein; the word gives no strength. Tags and fused reporters may be left off the sequences shown.

The target of this assay is T1, UBE2K-GFP (ubiquitin conjugating enzyme E2 K fused to GFP) (UniProt P61087).
T1 sequence: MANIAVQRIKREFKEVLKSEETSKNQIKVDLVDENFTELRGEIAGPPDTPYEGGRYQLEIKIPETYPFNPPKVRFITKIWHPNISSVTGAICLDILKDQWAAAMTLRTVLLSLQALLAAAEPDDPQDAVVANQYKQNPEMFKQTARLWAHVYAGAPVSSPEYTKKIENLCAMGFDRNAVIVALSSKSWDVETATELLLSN
Description: co-IP; 500 ug of protein from lysates of N2a cells transfected with vector or UBE2K-GFP; precipitated with anti-GFP antibody or nonspecific IgG; blotted for GluN2B, RNF168, RNF138, RNF2 and UBE2K.
“GluN2B subunit of NMDA receptor, endogenous in N2a cells (from UniProt Q01097 27-1482)”: the binding entry is on record as “binds”.

Turning to “RNF2, endogenous in N2a cells (from UniProt Q9CQJ4 1-336) (enzyme)”, the binding result is given as “no binding”. For the molecule “RING finger family 168 (RNF168), endogenous in N2a cells (from UniProt Q80XJ2 1-565) (enzyme)”, the binding entry is “binds”.

As for B1, the binding entry was “binds”.
